Assay results reported in paper PMC8745027.
No constants are given. Whether binding was seen depends on the method and setting. Binding seen in cells or lysates may run through a third protein. Some results given as binding are weak or reduced against the parent protein; the word gives no strength. One block for each substance: values may come before it.

Amino acid sequences for entries named in this document (tags omitted). A change or cut given only in a name is not applied to a line headed by its entry.
UniProt Q5T5P2: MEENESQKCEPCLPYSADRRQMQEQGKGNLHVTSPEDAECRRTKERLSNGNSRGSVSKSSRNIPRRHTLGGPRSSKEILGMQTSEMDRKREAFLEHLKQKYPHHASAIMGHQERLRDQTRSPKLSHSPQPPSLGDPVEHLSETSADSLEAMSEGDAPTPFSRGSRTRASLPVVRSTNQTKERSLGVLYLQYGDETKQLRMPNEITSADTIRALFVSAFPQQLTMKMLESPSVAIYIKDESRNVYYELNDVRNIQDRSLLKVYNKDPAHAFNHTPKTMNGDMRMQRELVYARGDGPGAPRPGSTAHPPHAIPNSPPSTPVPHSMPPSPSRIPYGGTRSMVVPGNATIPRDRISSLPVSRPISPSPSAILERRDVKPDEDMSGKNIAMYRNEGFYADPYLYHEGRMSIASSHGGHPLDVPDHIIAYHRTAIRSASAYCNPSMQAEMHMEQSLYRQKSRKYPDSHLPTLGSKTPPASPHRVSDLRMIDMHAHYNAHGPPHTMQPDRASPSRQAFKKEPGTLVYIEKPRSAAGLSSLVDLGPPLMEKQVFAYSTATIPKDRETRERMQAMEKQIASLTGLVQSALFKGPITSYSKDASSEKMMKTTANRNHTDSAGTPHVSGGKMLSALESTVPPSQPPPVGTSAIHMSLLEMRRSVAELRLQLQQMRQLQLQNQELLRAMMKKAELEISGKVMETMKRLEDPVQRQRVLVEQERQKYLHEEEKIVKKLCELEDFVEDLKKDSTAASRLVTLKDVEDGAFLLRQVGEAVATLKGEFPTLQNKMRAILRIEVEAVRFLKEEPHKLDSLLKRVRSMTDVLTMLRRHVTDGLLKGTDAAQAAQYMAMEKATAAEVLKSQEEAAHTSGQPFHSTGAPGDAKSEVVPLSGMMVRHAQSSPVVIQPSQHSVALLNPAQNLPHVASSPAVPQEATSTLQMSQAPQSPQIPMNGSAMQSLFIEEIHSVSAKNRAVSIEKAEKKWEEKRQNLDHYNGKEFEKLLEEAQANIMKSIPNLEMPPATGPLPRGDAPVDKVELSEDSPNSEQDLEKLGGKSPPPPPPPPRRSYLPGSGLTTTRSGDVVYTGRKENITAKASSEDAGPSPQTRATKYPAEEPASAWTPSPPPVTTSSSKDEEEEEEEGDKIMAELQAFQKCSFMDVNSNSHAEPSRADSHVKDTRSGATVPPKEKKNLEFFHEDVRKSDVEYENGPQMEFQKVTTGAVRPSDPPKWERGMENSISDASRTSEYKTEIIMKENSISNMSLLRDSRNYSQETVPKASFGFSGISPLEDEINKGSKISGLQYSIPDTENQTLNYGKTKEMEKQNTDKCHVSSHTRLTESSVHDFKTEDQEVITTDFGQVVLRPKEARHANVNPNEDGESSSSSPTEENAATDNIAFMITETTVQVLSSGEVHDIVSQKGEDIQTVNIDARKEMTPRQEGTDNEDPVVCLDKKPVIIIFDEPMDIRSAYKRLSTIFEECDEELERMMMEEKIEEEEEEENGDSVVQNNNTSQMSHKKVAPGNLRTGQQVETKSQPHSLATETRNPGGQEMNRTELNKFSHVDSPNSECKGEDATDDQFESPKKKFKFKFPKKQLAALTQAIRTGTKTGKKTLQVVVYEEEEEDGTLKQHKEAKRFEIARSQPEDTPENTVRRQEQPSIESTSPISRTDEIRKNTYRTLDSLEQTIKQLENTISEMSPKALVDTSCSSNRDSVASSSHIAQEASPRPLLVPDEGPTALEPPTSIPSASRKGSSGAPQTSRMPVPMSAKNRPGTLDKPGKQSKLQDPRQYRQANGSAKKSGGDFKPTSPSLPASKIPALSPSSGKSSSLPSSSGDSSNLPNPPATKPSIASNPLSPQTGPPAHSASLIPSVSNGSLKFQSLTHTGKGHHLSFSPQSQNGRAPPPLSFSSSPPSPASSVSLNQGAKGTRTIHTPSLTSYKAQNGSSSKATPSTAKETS
UniProt P40763: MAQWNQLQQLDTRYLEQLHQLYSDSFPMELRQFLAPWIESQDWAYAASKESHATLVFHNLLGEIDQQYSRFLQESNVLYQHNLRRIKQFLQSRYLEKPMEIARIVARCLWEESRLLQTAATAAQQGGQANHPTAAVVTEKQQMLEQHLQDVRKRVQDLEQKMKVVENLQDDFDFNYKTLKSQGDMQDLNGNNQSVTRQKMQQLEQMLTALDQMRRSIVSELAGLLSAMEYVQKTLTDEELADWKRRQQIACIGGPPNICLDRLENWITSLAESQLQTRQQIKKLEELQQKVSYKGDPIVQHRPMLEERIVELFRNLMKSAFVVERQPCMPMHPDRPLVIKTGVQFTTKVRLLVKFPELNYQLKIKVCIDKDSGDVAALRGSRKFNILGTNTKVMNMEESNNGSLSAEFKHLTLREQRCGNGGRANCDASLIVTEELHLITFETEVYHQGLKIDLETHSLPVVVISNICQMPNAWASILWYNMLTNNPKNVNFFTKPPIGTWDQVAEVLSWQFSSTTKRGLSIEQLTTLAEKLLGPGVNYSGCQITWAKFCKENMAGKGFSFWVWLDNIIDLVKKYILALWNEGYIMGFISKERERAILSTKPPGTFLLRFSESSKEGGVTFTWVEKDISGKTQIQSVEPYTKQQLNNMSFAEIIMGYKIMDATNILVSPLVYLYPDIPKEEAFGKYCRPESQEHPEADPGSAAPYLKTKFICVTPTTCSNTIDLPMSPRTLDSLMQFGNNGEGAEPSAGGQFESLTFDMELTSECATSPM
UniProt P23458: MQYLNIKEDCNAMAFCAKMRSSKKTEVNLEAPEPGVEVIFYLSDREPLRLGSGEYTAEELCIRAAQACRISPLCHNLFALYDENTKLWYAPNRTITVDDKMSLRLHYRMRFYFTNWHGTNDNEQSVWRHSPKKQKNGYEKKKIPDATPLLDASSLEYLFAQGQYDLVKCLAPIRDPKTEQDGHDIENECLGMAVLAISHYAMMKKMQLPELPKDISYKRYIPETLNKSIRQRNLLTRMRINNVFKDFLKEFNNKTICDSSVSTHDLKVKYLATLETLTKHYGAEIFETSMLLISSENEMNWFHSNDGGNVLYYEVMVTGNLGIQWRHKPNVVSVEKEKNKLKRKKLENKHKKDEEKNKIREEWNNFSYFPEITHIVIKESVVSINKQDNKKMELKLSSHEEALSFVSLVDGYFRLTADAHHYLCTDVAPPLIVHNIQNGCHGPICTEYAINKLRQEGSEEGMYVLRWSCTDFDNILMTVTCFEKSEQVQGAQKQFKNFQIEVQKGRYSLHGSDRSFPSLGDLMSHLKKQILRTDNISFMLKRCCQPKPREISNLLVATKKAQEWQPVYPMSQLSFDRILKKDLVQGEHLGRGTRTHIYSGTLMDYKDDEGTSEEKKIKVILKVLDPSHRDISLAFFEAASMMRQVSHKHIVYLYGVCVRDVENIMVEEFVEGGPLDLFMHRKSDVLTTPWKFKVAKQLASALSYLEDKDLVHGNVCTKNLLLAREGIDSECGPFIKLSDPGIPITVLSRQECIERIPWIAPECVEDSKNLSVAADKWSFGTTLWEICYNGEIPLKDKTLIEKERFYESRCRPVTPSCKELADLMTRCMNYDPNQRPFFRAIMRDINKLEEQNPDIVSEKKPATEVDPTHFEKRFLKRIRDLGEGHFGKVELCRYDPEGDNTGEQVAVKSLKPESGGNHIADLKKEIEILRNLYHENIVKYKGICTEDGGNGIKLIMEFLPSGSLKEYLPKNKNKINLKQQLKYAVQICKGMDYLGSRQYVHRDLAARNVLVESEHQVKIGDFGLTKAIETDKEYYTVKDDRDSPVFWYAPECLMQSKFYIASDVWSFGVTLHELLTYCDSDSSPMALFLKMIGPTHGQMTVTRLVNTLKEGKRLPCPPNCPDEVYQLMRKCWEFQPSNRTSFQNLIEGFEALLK
UniProt O60674: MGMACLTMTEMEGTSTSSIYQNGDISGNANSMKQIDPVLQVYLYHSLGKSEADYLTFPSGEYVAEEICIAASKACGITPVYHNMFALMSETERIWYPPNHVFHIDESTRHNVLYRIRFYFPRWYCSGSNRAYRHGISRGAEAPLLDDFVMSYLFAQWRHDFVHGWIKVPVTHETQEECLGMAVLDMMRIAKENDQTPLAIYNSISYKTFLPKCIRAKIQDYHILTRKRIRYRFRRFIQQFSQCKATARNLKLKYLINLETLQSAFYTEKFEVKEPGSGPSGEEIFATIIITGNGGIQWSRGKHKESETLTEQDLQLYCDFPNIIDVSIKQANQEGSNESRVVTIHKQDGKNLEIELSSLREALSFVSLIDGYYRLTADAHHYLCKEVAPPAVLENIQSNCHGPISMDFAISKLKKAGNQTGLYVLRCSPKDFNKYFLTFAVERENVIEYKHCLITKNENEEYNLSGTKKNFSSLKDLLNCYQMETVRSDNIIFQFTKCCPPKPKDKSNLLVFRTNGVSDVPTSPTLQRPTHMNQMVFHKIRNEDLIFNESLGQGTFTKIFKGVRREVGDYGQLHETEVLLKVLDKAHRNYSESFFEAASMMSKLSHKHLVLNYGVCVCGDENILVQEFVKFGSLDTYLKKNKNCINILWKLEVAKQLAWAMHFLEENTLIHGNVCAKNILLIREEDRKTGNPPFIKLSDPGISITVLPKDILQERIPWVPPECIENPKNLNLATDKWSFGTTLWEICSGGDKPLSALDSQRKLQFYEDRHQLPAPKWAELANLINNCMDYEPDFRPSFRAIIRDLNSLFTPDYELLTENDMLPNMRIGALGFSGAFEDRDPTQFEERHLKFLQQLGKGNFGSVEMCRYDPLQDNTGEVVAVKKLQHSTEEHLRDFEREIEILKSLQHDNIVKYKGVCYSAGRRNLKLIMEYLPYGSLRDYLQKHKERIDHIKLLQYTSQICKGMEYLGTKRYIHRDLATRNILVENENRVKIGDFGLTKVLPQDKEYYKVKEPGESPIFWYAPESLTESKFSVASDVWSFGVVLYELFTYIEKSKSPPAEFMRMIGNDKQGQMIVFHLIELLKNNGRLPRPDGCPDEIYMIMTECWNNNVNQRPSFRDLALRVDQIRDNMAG

Columns and labels:
[1] = biological target: endogenous KIAA1217 (human (endogenous in HepG2)) (UniProt Q5T5P2); test: co-IP; co-IP of endogenous proteins from HepG2 cells; Protein A/G magnetic beads with antibody at 5 ug/mL, lysate in IP lysis solution, 4 °C overnight; Western blot; isotype-matched IgG as negative control
[2] = biological target: KIAA1217 (overexpressed, pcDNA3.1-DYK-KIAA1217) (human) (UniProt Q5T5P2); test: co-IP; reciprocal co-IP from HEK-293T cells ectopically expressing KIAA1217 and STAT3; Protein A/G magnetic beads with antibody at 5 ug/mL, lysate in IP lysis solution, 4 °C overnight; Western blot; isotype-matched IgG as negative control
[3] = biological target: STAT3 (overexpressed, pCMV-DYK-STAT3) (UniProt P40763); test: as above
[4] = biological target: endogenous JAK1 (human (endogenous in HepG2)) (UniProt P23458); test: co-IP; co-IP of endogenous proteins from HepG2 cells; Protein A/G magnetic beads with antibody at 5 ug/mL, lysate in IP lysis solution, 4 °C overnight; Western blot; isotype-matched IgG as negative control
[5] = biological target: endogenous JAK2 (human (endogenous in HepG2)) (UniProt O60674); test: as above
[6] = biological target: endogenous STAT3 (human (endogenous in HepG2)) (UniProt P40763); test: as above

binding [2]: binds
Substance: STAT3 (overexpressed, pCMV-DYK-STAT3) (from UniProt P40763 1-770)

binding [4]: binds
binding [5]: binds
binding [6]: binds
Substance: endogenous KIAA1217 (from UniProt Q5T5P2 1-1943)

Further lines, the substance ahead of its results:

Substance: endogenous STAT3 (from UniProt P40763 1-770)
binding [1]: binds

Substance: endogenous phosphorylated STAT3 (p-STAT3) (from UniProt P40763 1-770)
binding [1]: binds

Substance: KIAA1217 (overexpressed, pcDNA3.1-DYK-KIAA1217) (from UniProt Q5T5P2-1 1-1943)
binding [3]: binds
